From the supplement of paper PMC10032668
The list shows a part of the results. Only hits are listed; about a third recur on repeated control peptides.

Amino acid sequences for entries named in this document (tags omitted).
PPP2R5D, Q14738, UniProt Q14738, whole entry: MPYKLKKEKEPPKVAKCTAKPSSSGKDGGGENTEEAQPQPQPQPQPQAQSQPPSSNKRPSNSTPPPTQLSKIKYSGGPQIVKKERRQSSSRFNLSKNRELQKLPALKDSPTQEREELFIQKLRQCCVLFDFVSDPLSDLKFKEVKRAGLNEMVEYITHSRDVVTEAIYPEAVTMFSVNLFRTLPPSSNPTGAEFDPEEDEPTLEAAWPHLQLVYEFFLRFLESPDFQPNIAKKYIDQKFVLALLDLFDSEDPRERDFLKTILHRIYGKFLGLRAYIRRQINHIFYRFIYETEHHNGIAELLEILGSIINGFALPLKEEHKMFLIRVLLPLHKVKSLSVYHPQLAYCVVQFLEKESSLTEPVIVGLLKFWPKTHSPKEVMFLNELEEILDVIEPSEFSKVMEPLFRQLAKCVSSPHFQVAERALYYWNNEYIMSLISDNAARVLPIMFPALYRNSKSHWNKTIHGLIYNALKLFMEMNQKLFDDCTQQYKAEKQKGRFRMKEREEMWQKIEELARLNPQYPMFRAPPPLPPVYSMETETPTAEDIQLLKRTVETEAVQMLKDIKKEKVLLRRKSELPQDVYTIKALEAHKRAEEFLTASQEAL
SNRPE, P62304, UniProt P62304, whole entry: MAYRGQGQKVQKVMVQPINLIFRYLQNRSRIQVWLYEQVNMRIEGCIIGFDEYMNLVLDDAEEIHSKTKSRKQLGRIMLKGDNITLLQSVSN
PHAX, Q9H814, UniProt Q9H814, whole entry: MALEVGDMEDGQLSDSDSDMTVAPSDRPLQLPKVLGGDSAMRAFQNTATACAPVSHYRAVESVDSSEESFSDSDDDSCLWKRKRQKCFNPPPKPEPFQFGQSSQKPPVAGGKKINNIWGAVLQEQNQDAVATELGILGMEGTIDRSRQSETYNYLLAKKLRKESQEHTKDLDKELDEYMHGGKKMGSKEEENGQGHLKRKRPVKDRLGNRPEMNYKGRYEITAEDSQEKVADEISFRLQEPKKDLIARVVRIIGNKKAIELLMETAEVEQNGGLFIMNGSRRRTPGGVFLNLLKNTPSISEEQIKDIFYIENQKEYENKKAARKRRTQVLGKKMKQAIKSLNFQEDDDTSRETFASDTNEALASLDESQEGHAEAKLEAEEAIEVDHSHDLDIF
SMARCC2, Q8TAQ2, UniProt Q8TAQ2, whole entry: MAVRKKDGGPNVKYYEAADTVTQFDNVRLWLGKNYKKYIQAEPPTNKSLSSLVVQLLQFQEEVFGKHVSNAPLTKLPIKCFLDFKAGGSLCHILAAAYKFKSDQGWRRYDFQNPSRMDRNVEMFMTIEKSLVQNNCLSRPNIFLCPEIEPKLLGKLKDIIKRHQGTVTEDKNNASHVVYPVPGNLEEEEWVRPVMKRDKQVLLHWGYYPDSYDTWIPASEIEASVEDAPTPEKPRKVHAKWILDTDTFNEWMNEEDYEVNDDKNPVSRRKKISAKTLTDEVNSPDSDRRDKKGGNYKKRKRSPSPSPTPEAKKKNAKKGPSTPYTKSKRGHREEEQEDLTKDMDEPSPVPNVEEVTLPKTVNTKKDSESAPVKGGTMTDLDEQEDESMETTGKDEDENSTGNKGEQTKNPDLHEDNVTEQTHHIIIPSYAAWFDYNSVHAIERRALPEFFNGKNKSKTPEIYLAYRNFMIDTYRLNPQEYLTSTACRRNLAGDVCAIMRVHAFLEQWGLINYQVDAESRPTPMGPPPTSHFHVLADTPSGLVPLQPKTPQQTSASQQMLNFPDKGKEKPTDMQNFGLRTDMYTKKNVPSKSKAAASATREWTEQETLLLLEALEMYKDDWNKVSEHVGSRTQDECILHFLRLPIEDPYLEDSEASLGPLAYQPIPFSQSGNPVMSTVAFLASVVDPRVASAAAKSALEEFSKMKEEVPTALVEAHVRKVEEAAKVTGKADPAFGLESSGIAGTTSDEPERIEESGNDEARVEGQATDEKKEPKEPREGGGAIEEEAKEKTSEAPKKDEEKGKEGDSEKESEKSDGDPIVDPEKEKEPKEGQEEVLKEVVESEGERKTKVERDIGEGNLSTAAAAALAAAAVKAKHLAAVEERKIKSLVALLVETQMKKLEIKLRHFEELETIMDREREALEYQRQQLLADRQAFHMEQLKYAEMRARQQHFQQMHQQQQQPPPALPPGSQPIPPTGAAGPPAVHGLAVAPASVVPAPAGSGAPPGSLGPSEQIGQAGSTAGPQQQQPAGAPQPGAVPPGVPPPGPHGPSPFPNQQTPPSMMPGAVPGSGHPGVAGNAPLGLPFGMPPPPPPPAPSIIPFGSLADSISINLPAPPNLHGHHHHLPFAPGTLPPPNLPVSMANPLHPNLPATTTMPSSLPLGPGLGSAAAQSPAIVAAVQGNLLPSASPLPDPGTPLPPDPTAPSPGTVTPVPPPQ
CHMP2B, Q9UQN3, UniProt Q9UQN3, whole entry: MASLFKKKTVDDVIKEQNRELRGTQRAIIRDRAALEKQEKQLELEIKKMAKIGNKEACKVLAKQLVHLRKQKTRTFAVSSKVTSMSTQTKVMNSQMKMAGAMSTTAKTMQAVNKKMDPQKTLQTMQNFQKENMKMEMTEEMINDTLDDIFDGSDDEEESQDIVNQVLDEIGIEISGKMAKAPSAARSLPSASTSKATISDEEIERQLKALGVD
DYNLRB1, Q9NP97, UniProt Q9NP97, whole entry: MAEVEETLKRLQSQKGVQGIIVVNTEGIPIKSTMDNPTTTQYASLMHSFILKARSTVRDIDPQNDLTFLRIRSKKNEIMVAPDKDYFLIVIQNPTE
ELAVL1, Q15717, UniProt Q15717, whole entry: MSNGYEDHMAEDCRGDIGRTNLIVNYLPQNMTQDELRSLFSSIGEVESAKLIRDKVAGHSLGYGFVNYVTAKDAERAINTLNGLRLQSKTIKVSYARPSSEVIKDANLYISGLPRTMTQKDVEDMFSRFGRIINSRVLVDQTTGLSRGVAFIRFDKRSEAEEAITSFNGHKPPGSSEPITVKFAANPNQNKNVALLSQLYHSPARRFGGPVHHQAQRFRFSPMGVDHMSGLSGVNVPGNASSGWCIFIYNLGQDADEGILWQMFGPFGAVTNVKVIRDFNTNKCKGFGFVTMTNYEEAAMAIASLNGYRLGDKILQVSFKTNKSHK

Tests used:
Assay in all cases: PRISMA enrichment of interactor (LFQ) in peptide spot vs all other peptide spots (log2 fold change); higher = stronger / more specific binding of the interactor to the peptide
ACIN1, Q9UKV3 = biological target: ACIN1, Q9UKV3
Method: (§1)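 PRISMA: 15-aa overlapping tiles (offset 8 aa) of 60 microproteins, plus SOS1/GLUT1 control peptides, were spot-synthesized on cellulose membranes in triplicate. Membranes were incubated with benzonase-treated HEK293T lysate, and bound proteins were identified by LC-MS/MS with LFQ. Enrichment is the log2 fold change of each protein in one spot versus all other spots. Only interactors passing the significance cutoff are listed.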

APRT, P07741 = biological target: APRT, P07741
Method: as §1

CIAO1, O76071 = biological target: CIAO1, O76071
Method: as §1

[1] = substrate: CNP, P09543
Method: as §1

COPS3, Q9UNS2 = biological target: COPS3, Q9UNS2
Method: as §1

MDC1, Q14676 = biological target: MDC1, Q14676
Method: as §1

MED23, Q9ULK4 = biological target: MED23, Q9ULK4
Method: as §1

MKI67, P46013 = biological target: MKI67, P46013
Method: as §1

MRFAP1, Q9Y605 = biological target: MRFAP1, Q9Y605
Method: as §1

MRPS6, P82932 = biological target: MRPS6, P82932
Method: as §1

ORC5, O43913 = biological target: ORC5, O43913
Method: as §1

PPP2R5D, Q14738 = biological target: PPP2R5D, Q14738
Method: as §1

SNRPE, P62304 = biological target: SNRPE, P62304
Method: as §1

TWNK, Q96RR1 = biological target: TWNK, Q96RR1
Method: as §1

UTP4, Q969X6 = biological target: UTP4, Q969X6
Method: as §1

ACO2, Q99798 = biological target: ACO2, Q99798
Method: as §1

ATP5ME, P56385 = biological target: ATP5ME, P56385
Method: as §1

ATP5MG, O75964 = biological target: ATP5MG, O75964
Method: as §1

BZW2, Q9Y6E2 = biological target: BZW2, Q9Y6E2
Method: as §1

CLTA, P09496 = biological target: CLTA, P09496
Method: as §1

CLTB, P09497 = biological target: CLTB, P09497
Method: as §1

DCAF1, Q9Y4B6 = biological target: DCAF1, Q9Y4B6
Method: as §1

FOCAD, Q5VW36 = biological target: FOCAD, Q5VW36
Method: as §1

GIGYF2, Q6Y7W6 = biological target: GIGYF2, Q6Y7W6
Method: as §1

HNRNPR, O43390 = biological target: HNRNPR, O43390
Method: as §1

IVD, P26440 = biological target: IVD, P26440
Method: as §1

NCAPD3, P42695 = biological target: NCAPD3, P42695
Method: as §1

PHAX, Q9H814 = biological target: PHAX, Q9H814
Method: as §1

SMARCC2, Q8TAQ2 = biological target: SMARCC2, Q8TAQ2
Method: as §1

SUGP2, Q8IX01 = biological target: SUGP2, Q8IX01
Method: as §1

UBA1, P22314 = biological target: UBA1, P22314
Method: as §1

WTAP, Q15007 = biological target: WTAP, Q15007
Method: as §1

ACLY, P53396 = biological target: ACLY, P53396
Method: as §1

CDK2, P24941 = biological target: CDK2, P24941
Method: as §1

CHMP2B, Q9UQN3 = biological target: CHMP2B, Q9UQN3
Method: as §1

DUSP11, O75319 = biological target: DUSP11, O75319
Method: as §1

DYNLRB1, Q9NP97 = biological target: DYNLRB1, Q9NP97
Method: as §1

ELAVL1, Q15717 = biological target: ELAVL1, Q15717
Method: as §1

FAM107B, Q9H098 = biological target: FAM107B, Q9H098
Method: as §1

HLTF, Q14527 = biological target: HLTF, Q14527
Method: as §1

MACF1 = biological target: MACF1
Method: as §1

NOL9, Q5SY16 = biological target: NOL9, Q5SY16
Method: as §1

NUP160, Q12769 = biological target: NUP160, Q12769
Method: as §1

RAB11A, P62491 = biological target: RAB11A, P62491
Method: as §1

[2] = substrate: SSB, P05455
Method: as §1

TOMM5, Q8N4H5 = biological target: TOMM5, Q8N4H5
Method: as §1

B1: LINC01560 (peptide)
chain: EFRGTAENVTGLNTI
- PRISMA enrichment of interactor (log2) (ACIN1, Q9UKV3): 5.74
- PRISMA enrichment of interactor (log2) (APRT, P07741): 4.43
- PRISMA enrichment of interactor (log2) (CIAO1, O76071): 4.49
- PRISMA enrichment of interactor (log2) [1]: 6.8
- PRISMA enrichment of interactor (log2) (COPS3, Q9UNS2): 4.76
- PRISMA enrichment of interactor (log2) (MDC1, Q14676): 5.44
- PRISMA enrichment of interactor (log2) (MED23, Q9ULK4): 4.88
- PRISMA enrichment of interactor (log2) (MKI67, P46013): 4.87
- PRISMA enrichment of interactor (log2) (MRFAP1, Q9Y605): 3.98
- PRISMA enrichment of interactor (log2) (MRPS6, P82932): 5.48
- PRISMA enrichment of interactor (log2) (ORC5, O43913): 4.09
- PRISMA enrichment of interactor (log2) (PPP2R5D, Q14738): 5.14
- PRISMA enrichment of interactor (log2) (SNRPE, P62304): 8.41
- PRISMA enrichment of interactor (log2) (TWNK, Q96RR1): 6.2
- PRISMA enrichment of interactor (log2) (UTP4, Q969X6): 5.1

B2: LINC01128 (peptide)
chain: LLLDDPGHRPASTYP
- PRISMA enrichment of interactor (log2) (ACO2, Q99798): 4.54
- PRISMA enrichment of interactor (log2) (ATP5ME, P56385): 5.26
- PRISMA enrichment of interactor (log2) (ATP5MG, O75964): 5.35
- PRISMA enrichment of interactor (log2) (BZW2, Q9Y6E2): 4.81
- PRISMA enrichment of interactor (log2) (CLTA, P09496): 5.86
- PRISMA enrichment of interactor (log2) (CLTB, P09497): 5.1
- PRISMA enrichment of interactor (log2) (DCAF1, Q9Y4B6): 6.12
- PRISMA enrichment of interactor (log2) (FOCAD, Q5VW36): 3.93
- PRISMA enrichment of interactor (log2) (GIGYF2, Q6Y7W6): 5.25
- PRISMA enrichment of interactor (log2) (HNRNPR, O43390): 4.85
- PRISMA enrichment of interactor (log2) (IVD, P26440): 7.14
- PRISMA enrichment of interactor (log2) (NCAPD3, P42695): 3.99
- PRISMA enrichment of interactor (log2) (PHAX, Q9H814): 4.78
- PRISMA enrichment of interactor (log2) (SMARCC2, Q8TAQ2): 5.33
- PRISMA enrichment of interactor (log2) (SUGP2, Q8IX01): 5.03
- PRISMA enrichment of interactor (log2) (UBA1, P22314): 5.27
- PRISMA enrichment of interactor (log2) (WTAP, Q15007): 4.31

B3: PRR34-AS1 (peptide)
chain: EEAKEKKDLLKMCTS
- PRISMA enrichment of interactor (log2) (ACLY, P53396): 6.46
- PRISMA enrichment of interactor (log2) (ATP5ME, P56385): 5.16
- PRISMA enrichment of interactor (log2) (CDK2, P24941): 4.38
- PRISMA enrichment of interactor (log2) (CHMP2B, Q9UQN3): 5.52
- PRISMA enrichment of interactor (log2) (DUSP11, O75319): 4.75
- PRISMA enrichment of interactor (log2) (DYNLRB1, Q9NP97): 4.61
- PRISMA enrichment of interactor (log2) (ELAVL1, Q15717): 4.99
- PRISMA enrichment of interactor (log2) (FAM107B, Q9H098): 4.57
- PRISMA enrichment of interactor (log2) (HLTF, Q14527): 5.3
- PRISMA enrichment of interactor (log2) (MACF1): 5.17
- PRISMA enrichment of interactor (log2) (NOL9, Q5SY16): 5.37
- PRISMA enrichment of interactor (log2) (NUP160, Q12769): 4.57
- PRISMA enrichment of interactor (log2) (RAB11A, P62491): 8.32
- PRISMA enrichment of interactor (log2) [2]: 5.91
- PRISMA enrichment of interactor (log2) (TOMM5, Q8N4H5): 5.47
